The target in this assay is Cynomolgus CD123-His (soluble cynomolgus IL3R-alpha) (cynomolgus monkey). The assay is described as follows: bifunctional ELISA, plate coated with cynomolgus monkey CD123, detection with human CD3-biotin and streptavidin-HRP.

Results are given in words; binding and its absence hold for the method and conditions named.

B1: Control Bi-Specific Diabody (Control DART) (bispecific antibody)
chain 1: DVVMTQTPFSLPVSLGDQASISCRSSQSLVHSNGNTYLRWYLQKPGQSPKVLIYKVSNRFSGVPDRFSGSGSGTDFTLKISRVEAEDLGVYFCSQSTHVPWTFGGGTKLEIKGGGSGGGGEVQLVESGGGLVQPGGSLRLSCAASGFTFNTYAMNWVRQAPGKGLEWVARIRSKYNNYATYYADSVKDRFTISRDDSKNSLYLQMNSLKTEDTAVYYCVRHGNFGNSYVSWFAYWGQGTLVTVSSGGCGGGEVAALEKEVAALEKEVAALEKEVAALEK
chain 2: QAVVTQEPSLTVSPGGTVTLTCRSSTGAVTTSNYANWVQQKPGQAPRGLIGGTNKRAPWTPARFSGSLLGGKAALTITGAQAEDEADYYCALWYSNLWVFGGGTKLTVLGGGGSGGGGEVKLDETGGGLVQPGRPMKLSCVASGFTFSDYWMNWVRQSPEKGLEWVAQIRNKPYNYETYYSDSVKGRFTISRDDSKSSVYLQMNNLRVEDMGIYYCTGSYYGMDYWGQGTSVTVSSGGCGGGKVAALKEKVAALKEKVAALKEKVAALKE
On to B1, for which the binding entry is reported as “no binding (tested: 1 ug/ml)”.
